Experimental data: publication PMC4202135
These are yes or no findings as the source states them, for the method shown. Binding seen in cells or lysates may run through a third protein. Some binding calls cover weakened binding; strength is not graded here. Tags and fused reporters may be left off the sequences shown.

Target: p53 tumour suppressor protein (human (endogenous in HK-2 and RCC Shaw)) (UniProt P04637)
Assay: co-IP; HK-2 and RCC Shaw cells co-transfected with the indicated plasmids; lysed in RIPA buffer with 10% glycerol; immunoprecipitation with the p53-specific antibody DO-1; immunoblot with anti-MDM2 (2A10) and anti-HA

binding: binds
B1: HA-TRIM8 (protein, UniProt Q9BZR9 1-551)
chain: MAENWKNCFEEELICPICLHVFVEPVQLPCKHNFCRGCIGEAWAKDSGLVRCPECNQAYNQKPGLEKNLKLTNIVEKFNALHVEKPPAALHCVFCRRGPPLPAQKVCLRCEAPCCQSHVQTHLQQPSTARGHLLVEADDVRAWSCPQHNAYRLYHCEAEQVAVCQYCCYYSGAHQGHSVCDVEIRRNEIRKMLMKQQDRLEEREQDIEDQLYKLESDKRLVEEKVNQLKEEVRLQYEKLHQLLDEDLRQTVEVLDKAQAKFCSENAAQALHLGERMQEAKKLLGSLQLLFDKTEDVSFMKNTKSVKILMDRTQTCTSSSLSPTKIGHLNSKLFLNEVAKKEKQLRKMLEGPFSTPVPFLQSVPLYPCGVSSSGAEKRKHSTAFPEASFLETSSGPVGGQYGAAGTASGEGQSGQPLGPCSSTQHLVALPGGAQPVHSSPVFPPSQYPNGSAAQQPMLPQYGGRKILVCSVDNCYCSSVANHGGHQPYPRSGHFPWTVPSQEYSHPLPPTPSVPQSLPSLAVRDWLDASQQPGHQDFYRVYGQPSTKHYVTS
